Most values lie at the floor of the assay. Slopes are relative: functional sequences can read slightly below zero.
Test system: Saccharomyces cerevisiae PS128 hsf1 delta, HSF1(1-493) fusion
Experiment: growth estimate (transactivation domain function in HSF1 fusion, heat-shock survival) (a.u. (slope of normalised read count over time)); higher = stronger growth at 37°C, i.e. more transactivation activity
Details: library: random library
Experimental: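 Random 60-nt DNA library encoding peptides of up to 20 aa, fused to the C-terminus of yeast HSF1 residues 1-493 (C-terminal TAD deleted) and expressed from the native HSF1 promoter on a CEN plasmid in hsf1-deleted S. cerevisiae PS128. Cells were selected at 37°C on -trp 5-FOA plates for 0, 2, 4, 6 and 8 days and amplicons were sequenced. Growth estimate is the slope of a robust linear fit of total-sum-normalised read counts (normalised to the first time point) over time, using at least 2 replicates. Sequences are classed functional (TAD activity) above a threshold of -0.13, set from stop-codon control sequences.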

Row | Substance | growth estimate
1 | RVRPANERVDYLTRVSLEHI | < -0.25
2 | GPLQRL | -0.246
3 | TEKWGSP | < -0.25
4 | HWVINRLIAV | < -0.25
5 | YIVCAHLNRF | < -0.25
6 | GPASPALWLTKGCELAEPRT | < -0.25
7 | KSAGITW | < -0.25
8 | YLDSVCHPFRLGSEGEYSRV | < -0.25
9 | VHLSDLDWWPKGLAQKAFDQ | < -0.25
10 | PTFGFRAIEEECK | < -0.25
11 | GSRLEPYHMPPASCGVPGKC | < -0.25
12 | GGSRRACLA | < -0.25
13 | RISEALHRGGSHIADGASWA | < -0.25
14 | ADRWITSLVPHPIHLARKL | < -0.25
15 | ITGVKVGSLPET | < -0.25
16 | GAETSCSIVPTSTSSASGSW | < -0.25
17 | RQSESGVPKGIVLWLGQLSR | < -0.25
18 | LNICGEQKDGVDWGRGKSRR | < -0.25
19 | RVEVVTESAF | < -0.25
20 | PRPVSEELSSGTVGVFSVLA | < -0.25
21 | KPYGNDWPTVRCS | < -0.25
22 | FAAIVNNKSVRADFRGQPRV | < -0.25
23 | HLVGHYFTDQHNARAVVRHQ | < -0.25
24 | IVSCRMGTAKALGREVLGGS | < -0.25
25 | NNVLPAVRFPNNFVTSKKAA | < -0.25
26 | EKSNKGPVTSCVW | < -0.25

Retrieved one by one from the list above (3):
Row | Substance | growth estimate
2 | GPLQRL | -0.246
1 | RVRPANERVDYLTRVSLEHI | < -0.25
23 | HLVGHYFTDQHNARAVVRHQ | < -0.25

Remaining list, next part

Row | Substance | growth estimate
27 | TWNVGHVGFCVCDRCRPICD | < -0.25
28 | QLTVSSHQGLPVRVSENVAQ | < -0.25
29 | DVRYLISQAK | < -0.25
30 | VVQKTSETGLLRNGKREQHT | -0.246
31 | EVLYRVGYKSIACVRRLPSY | < -0.25
32 | TRLARIVQFNGIATHDLAWA | < -0.25
33 | KPHIVITGAMEGSSRATVRL | < -0.25
34 | SGGQHWASHIPLSRWIHALW | < -0.25
35 | FVRGCKENDRPGVTYITKHG | < -0.25
36 | AKKRSMAAPSRFNSRAMLHA | < -0.25
37 | KSCIYEHV | < -0.25
38 | QSAGGTRAVNDPLTTRVDLP | < -0.25
39 | PMF | < -0.25
40 | QPD | < -0.25
41 | ARTYAGGSL | < -0.25
42 | SNISDEVPHPLAIHNDYATT | < -0.25
43 | LSTKPRLGDDWRPVFQGRHS | < -0.25
44 | RSVQPSRVSLNDMPKSIREP | -0.25
45 | SEQRKRVRVRPRHERNAGSR | < -0.25
46 | CLWYQY | 3.05
47 | SMYQLTETLHSTA | < -0.25
48 | LVNRRLFALRIHRMDAPQGA | < -0.25
49 | RTSLCAFSRAFSSSLSRLNH | < -0.25
50 | NTLER | < -0.25
51 | EQGRRFVNDSEGLRLHKPSV | < -0.25
52 | DILCYGSMEEMASNSPNCIY | < -0.25

Row | Substance | growth estimate
53 | TRGYGNAGAHHSGQSVGGTD | < -0.253
54 | YSAPFLRPGT | < -0.25
55 | TMFWK | < -0.25
56 | GRERGP | < -0.25
57 | DVGRLGSRSIRTLPDTIWLA | < -0.25
58 | YAGGLAYLLMRAL | < -0.25
59 | HANRSRT | < -0.25
60 | LLPVFVFFGKGWLDRVGISS | < -0.25
61 | IQGKVDSQAVLRRS | < -0.25
62 | GCGVQATNVAQVGSGAVNAP | -0.243
63 | SLP | < -0.25
64 | PSRHLEQLGI | < -0.25
65 | SVKS | < -0.25
66 | LEGLKLWLGAVGEPLD | < -0.25
67 | HPDEQGKAARFKVFRRD | < -0.25
68 | KCGDLECAERYRVFLRSRLP | < -0.25
69 | LCSLGFALRLGYILSL | < -0.25
70 | GVTAADRILSQSKGLRGFAG | < -0.25
71 | HGGRPYRRVRKLSLHRMGVN | < -0.25
72 | MSDIGVGFRYMVRFKVIGDR | < -0.25
73 | LMHLSVALVDLLLLNV | < -0.25
74 | AGRNNRGDRIRNRLPSDYSR | < -0.25
75 | GGESPTSRRLTSTVNVLPI | < -0.25
76 | TQIIFGNILFTDHALHRFRG | < -0.25
77 | LPGKPSVSRG | < -0.25
78 | GPAMQVLLLTHS | < -0.25

Row | Substance | growth estimate
79 | EILTSLRLGCSYCARCIGWV | < -0.25
80 | SGNYCRMRLQGRADRTPGTQ | < -0.25
81 | KERKC | < -0.25
82 | ELTVMRSITHK | < -0.25
83 | ASCCSRTG | < -0.25
84 | AVIHKDEYTEGRKDDPPGIH | < -0.25
85 | FTTCTMIVSRGLQRQ | < -0.25
86 | GRFNAGCNSCYIFSRVEIQP | < -0.25
87 | LLVASLGDVRVITGFMCPRC | < -0.25
88 | QFSGSRLV | < -0.25
89 | SGHDTSSEFRRSVAYFSSDK | < -0.25
90 | PNGLKVYSKSSP | < -0.25
91 | ARLEIVSCLISAQVTHWAIT | < -0.25
92 | SILLSFALIVLGWVTVLNPS | < -0.25
93 | ESPLDLITRSAGAACGWGTA | < -0.25
94 | GHRTWQRRSSLRD | < -0.25
95 | CVFYELQFRSR | < -0.25
96 | VVLRGGCLAFITSAAIQQGH | < -0.25
97 | ASRWCGAIFAQRTFRD | < -0.25
98 | QNGHRLGVSRWNGVHSAKAI | < -0.25
99 | GSWTTSLWC | < -0.25
100 | SWSGRR | < -0.25
101 | FCR | < -0.25
102 | RPGSYVPGKMGFYENPSNWV | < -0.25
103 | QLIVQERSYSRDVRAVPRPS | < -0.25
104 | RMSMLITNGFASCPPL | < -0.25

Row | Substance | growth estimate
105 | SKLYAHVDSNPINSPMAPSA | < -0.25
106 | PLRTSPQ | < -0.25
107 | NCEDGVT | -0.245
108 | LGCSASHFHN | < -0.25
109 | ATIGVDRWVS | < -0.25
110 | VALTERYWAAPRCLPVPFLL | < -0.25
111 | LHSSSRN | < -0.25
112 | TITGRAMANGTGTVRVAPLS | < -0.25
113 | ITRGP | < -0.25
114 | NFPDCRLIAIMRLSTVGGHS | < -0.25
115 | LKCLESRPCISGGRVLPMVQ | < -0.25
116 | QDLKGKAGRNVWLSGIPARE | < -0.25
117 | AVRHYEPWSHRNT | < -0.25
118 | RIPDGETLWCRALERRPCKI | < -0.25
119 | DHFSSGYPYSRYPTL | < -0.25
120 | LLMGS | < -0.25
121 | FCEHGQIY | < -0.25
122 | VPRRYNNASHTD | -0.116
123 | YRGRTPRGE | < -0.25
124 | GIPSSSTDRTIRSI | < -0.25
125 | NNIH | -0.243
126 | LVPTHPGTVRATPYWLVHRN | < -0.25
127 | SSAVPNGRF | < -0.25
128 | RLFCYNAPS | < -0.25
129 | TRGQRTSLYSSGRHHGCRS | < -0.25
130 | VPTIYCQGLGLYRYRGDNVA | < -0.25

Row | Substance | growth estimate
131 | SVQHSGLS | < -0.25
132 | LAFVFFLSGVGGSGEGVLWV | < -0.25
133 | CNSAHMR | < -0.25
134 | DQVVSCIRTTKTPSKGVPFA | < -0.25
135 | IFVQAGVWMTLRTRWDKC | < -0.25
136 | CRPSLARIKFAERARK | < -0.25
137 | THRLTK | < -0.25
138 | WVASRCRGCLIDQV | < -0.25
139 | RSVKPSTLRYSKYRTPVKVQ | < -0.25
140 | LGGAFPVVDAWHRVRERLAC | < -0.25
141 | GSGT | < -0.25
142 | DWDTSGMGYRRDLLCPPRGC | < -0.25
143 | GNWLSVS | < -0.25
144 | FLVYRVRKKDRRSLLH | < -0.25
145 | DTPC | < -0.25
146 | KGARKGRANSSKSRRRVGRI | < -0.25
147 | GPC | < -0.25
148 | ERGTCYHGAALLEKNKSYSR | < -0.25
149 | HGRDWTCLKSSSVHMITSDW | < -0.25
150 | VRPLDGESPAGYGRYKPILF | < -0.25
151 | RYRLV | < -0.25

A second format for part of the listing above.
Row,Substance,growth estimate
15,ITGVKVGSLPET,< -0.25
38,QSAGGTRAVNDPLTTRVDLP,< -0.25

Reformatted: results already given.
Row	Substance	growth estimate
143	GNWLSVS	< -0.25
144	FLVYRVRKKDRRSLLH	< -0.25
145	DTPC	< -0.25
146	KGARKGRANSSKSRRRVGRI	< -0.25

— the supplement of paper PMC5949888
